Results deposited as PubChem BioAssay AID1259405 (NCATS, 2018)
This is one part, drawn at random, of about 50,000 reagents. About 4,000 of them (8%) count as active. 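Mouse siRNA library applied to hamster cells; one well for each siRNA.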 The numbers tell different reagents against one gene apart.

- Test: 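Mouse-designed siRNAs used to find CHO productivity engineering targets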 (primary screen)
- Cell system: Chinese hamster CHO-K1 ovary cells with stable secreted eGFP expression
- Knock-down reagent: single siRNA against mouse genes, 0.8 pmol siRNA per well (2 µl of 400 nM stock)
- Time to read-out: 3 days
- Detection: 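Per-well intracellular GFP measured by laser scanning cytometry, plus viability from ATP luminescence, each relative to plate median of non-targeting control wells, in %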
- Direction: GFP, % of control: higher = more GFP per well, higher productivity; viability (ATP), % of control: higher = more viable cells (more ATP)
- Rule for the call: 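a knock-down is called active if GFP reaches 120% or more of non-targeting control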

After knock-down of Gid4 (GeneID 66771) #1, the screen gave GFP, % of control 106; viability (ATP), % of control 94.1; inactive.
Knock-down of Gid4 (GeneID 66771) #2 came out at: GFP, % of control 84.9; viability (ATP), % of control 87.9; inactive.
Gid4 (GeneID 66771) #3 gave GFP, % of control 115; viability (ATP), % of control 114; inactive.
Azin1 (GeneID 54375) #1 scored GFP, % of control 85.8; viability (ATP), % of control 125; inactive.
Azin1 (GeneID 54375) #2 gave GFP, % of control 112; viability (ATP), % of control 85.2; inactive.
Knock-down of Snta1 (GeneID 20648) #1 came out at: GFP, % of control 75.4; viability (ATP), % of control 106; inactive.
Knock-down of Snta1 (GeneID 20648) #2 came out at: GFP, % of control 113; viability (ATP), % of control 93.7; inactive.
With knock-down of Yars1 (GeneID 107271) #1, the record shows GFP, % of control 99.7; viability (ATP), % of control 66.3; inactive.
Yars1 (GeneID 107271) #2 gave GFP, % of control 165; viability (ATP), % of control 143; active.
Scn10a (GeneID 20264) #1 gave GFP, % of control 100; viability (ATP), % of control 93.5; inactive.
After knock-down of Scn10a (GeneID 20264) #2, the screen gave GFP, % of control 68.7; viability (ATP), % of control 52.4; inactive.
After knock-down of Scn10a (GeneID 20264) #3, the record shows GFP, % of control 84.6; viability (ATP), % of control 66.6; inactive.
For Rax (GeneID 19434) #1, the entry reads GFP, % of control 98; viability (ATP), % of control 89.1; inactive.
For Rax (GeneID 19434) #2, the values are GFP, % of control 92.4; viability (ATP), % of control 79.8; inactive.
With knock-down of Dusp9 (GeneID 75590) #1, the screen gave GFP, % of control 100; viability (ATP), % of control 86.5; inactive.
After knock-down of Dusp9 (GeneID 75590) #2, the record shows GFP, % of control 63; viability (ATP), % of control 68.7; inactive.
